Binding data for two molecules are collected here from doi:10.1101/2025.02.27.640524 (bioRxiv, 2025).

Protein sequences, listed by entry. Tags and fused reporters are not part of them.
UniProt G2XEY3: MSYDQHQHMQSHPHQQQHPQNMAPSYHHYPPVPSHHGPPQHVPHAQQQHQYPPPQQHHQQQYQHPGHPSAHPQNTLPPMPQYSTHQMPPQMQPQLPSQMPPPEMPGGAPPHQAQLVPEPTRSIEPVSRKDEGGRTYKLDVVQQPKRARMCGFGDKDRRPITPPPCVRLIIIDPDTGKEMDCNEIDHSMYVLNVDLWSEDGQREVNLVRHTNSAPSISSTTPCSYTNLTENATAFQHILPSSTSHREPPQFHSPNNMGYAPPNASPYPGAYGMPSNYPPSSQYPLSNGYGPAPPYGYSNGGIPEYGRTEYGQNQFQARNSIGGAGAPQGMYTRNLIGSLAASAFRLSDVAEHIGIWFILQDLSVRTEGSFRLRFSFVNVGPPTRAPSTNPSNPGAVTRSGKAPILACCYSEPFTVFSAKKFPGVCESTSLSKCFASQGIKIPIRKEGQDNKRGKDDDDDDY
UniProt G2X9D1: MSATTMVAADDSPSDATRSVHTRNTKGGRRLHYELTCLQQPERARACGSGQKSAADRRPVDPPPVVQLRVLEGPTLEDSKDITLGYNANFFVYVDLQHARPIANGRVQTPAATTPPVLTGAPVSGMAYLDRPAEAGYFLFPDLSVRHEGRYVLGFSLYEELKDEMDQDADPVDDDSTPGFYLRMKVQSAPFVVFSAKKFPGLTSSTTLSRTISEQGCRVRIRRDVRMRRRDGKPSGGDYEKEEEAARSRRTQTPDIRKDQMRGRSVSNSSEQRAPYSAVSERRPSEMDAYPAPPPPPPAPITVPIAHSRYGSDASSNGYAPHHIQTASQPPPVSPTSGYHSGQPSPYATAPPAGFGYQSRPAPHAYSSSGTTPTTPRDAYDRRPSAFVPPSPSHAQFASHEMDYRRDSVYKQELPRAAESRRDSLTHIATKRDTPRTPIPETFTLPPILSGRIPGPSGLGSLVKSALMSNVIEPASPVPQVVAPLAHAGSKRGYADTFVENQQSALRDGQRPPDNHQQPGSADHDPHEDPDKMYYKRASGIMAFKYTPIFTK

The assay deals with Vel2-GFP (V. dahliae VelB ortholog Vel2 fused to GFP) (Verticillium dahliae) (UniProt G2XEY3). In words: affinity purification with mass spectrometry.

No constants are given. Whether binding was seen depends on the method and setting. In cells and extracts the contact can be indirect. A yes stands for co-enrichment or nearness to the bait. Other partners may have been found.

On to “Vel1 (VeA counterpart), V. dahliae, endogenous (from UniProt G2X9D1 1-552)”, for which the binding entry is reported as “binds”.

B1: Vos1 (VosA counterpart), V. dahliae, endogenous (protein, UniProt G2X5B4 1-296)
chain: MAGLANVQSYSGLDSPQDPIISSGDYVLTMCQEPVIGLVAGGKDKDRKPLDPPPVVKLDVSHQRDPAGLFLSNPYNFLTCHLVKVGDHNIETPVPGNKLVGTVVSSLHRLKDKDNQDVAYFVFGDVSVKVEGRFRLVFTLFDMGGQDCTQLASIKSQPFNIFPNKLFPGLNESTYLTRAINDQGVRVRIRKDSRQSQTSKRNKRVAERFNDYMDNTRPQQRQREGLPLGVNYPSSGVGIDNVFGSLAPNMSMNPFPSPAHSSDSGLPSSVSMHGSSGPPADRFPDSGHGLWGRDYS
As for B1, the binding entry is on record as “binds”.
